From PMC3559379 come the findings set out here.

Chains of the proteins cited; added tags and fusions are not shown. Lines headed by an entry give the natural chain unless they say otherwise; changes in a name come on top.
UniProt M9PGC5: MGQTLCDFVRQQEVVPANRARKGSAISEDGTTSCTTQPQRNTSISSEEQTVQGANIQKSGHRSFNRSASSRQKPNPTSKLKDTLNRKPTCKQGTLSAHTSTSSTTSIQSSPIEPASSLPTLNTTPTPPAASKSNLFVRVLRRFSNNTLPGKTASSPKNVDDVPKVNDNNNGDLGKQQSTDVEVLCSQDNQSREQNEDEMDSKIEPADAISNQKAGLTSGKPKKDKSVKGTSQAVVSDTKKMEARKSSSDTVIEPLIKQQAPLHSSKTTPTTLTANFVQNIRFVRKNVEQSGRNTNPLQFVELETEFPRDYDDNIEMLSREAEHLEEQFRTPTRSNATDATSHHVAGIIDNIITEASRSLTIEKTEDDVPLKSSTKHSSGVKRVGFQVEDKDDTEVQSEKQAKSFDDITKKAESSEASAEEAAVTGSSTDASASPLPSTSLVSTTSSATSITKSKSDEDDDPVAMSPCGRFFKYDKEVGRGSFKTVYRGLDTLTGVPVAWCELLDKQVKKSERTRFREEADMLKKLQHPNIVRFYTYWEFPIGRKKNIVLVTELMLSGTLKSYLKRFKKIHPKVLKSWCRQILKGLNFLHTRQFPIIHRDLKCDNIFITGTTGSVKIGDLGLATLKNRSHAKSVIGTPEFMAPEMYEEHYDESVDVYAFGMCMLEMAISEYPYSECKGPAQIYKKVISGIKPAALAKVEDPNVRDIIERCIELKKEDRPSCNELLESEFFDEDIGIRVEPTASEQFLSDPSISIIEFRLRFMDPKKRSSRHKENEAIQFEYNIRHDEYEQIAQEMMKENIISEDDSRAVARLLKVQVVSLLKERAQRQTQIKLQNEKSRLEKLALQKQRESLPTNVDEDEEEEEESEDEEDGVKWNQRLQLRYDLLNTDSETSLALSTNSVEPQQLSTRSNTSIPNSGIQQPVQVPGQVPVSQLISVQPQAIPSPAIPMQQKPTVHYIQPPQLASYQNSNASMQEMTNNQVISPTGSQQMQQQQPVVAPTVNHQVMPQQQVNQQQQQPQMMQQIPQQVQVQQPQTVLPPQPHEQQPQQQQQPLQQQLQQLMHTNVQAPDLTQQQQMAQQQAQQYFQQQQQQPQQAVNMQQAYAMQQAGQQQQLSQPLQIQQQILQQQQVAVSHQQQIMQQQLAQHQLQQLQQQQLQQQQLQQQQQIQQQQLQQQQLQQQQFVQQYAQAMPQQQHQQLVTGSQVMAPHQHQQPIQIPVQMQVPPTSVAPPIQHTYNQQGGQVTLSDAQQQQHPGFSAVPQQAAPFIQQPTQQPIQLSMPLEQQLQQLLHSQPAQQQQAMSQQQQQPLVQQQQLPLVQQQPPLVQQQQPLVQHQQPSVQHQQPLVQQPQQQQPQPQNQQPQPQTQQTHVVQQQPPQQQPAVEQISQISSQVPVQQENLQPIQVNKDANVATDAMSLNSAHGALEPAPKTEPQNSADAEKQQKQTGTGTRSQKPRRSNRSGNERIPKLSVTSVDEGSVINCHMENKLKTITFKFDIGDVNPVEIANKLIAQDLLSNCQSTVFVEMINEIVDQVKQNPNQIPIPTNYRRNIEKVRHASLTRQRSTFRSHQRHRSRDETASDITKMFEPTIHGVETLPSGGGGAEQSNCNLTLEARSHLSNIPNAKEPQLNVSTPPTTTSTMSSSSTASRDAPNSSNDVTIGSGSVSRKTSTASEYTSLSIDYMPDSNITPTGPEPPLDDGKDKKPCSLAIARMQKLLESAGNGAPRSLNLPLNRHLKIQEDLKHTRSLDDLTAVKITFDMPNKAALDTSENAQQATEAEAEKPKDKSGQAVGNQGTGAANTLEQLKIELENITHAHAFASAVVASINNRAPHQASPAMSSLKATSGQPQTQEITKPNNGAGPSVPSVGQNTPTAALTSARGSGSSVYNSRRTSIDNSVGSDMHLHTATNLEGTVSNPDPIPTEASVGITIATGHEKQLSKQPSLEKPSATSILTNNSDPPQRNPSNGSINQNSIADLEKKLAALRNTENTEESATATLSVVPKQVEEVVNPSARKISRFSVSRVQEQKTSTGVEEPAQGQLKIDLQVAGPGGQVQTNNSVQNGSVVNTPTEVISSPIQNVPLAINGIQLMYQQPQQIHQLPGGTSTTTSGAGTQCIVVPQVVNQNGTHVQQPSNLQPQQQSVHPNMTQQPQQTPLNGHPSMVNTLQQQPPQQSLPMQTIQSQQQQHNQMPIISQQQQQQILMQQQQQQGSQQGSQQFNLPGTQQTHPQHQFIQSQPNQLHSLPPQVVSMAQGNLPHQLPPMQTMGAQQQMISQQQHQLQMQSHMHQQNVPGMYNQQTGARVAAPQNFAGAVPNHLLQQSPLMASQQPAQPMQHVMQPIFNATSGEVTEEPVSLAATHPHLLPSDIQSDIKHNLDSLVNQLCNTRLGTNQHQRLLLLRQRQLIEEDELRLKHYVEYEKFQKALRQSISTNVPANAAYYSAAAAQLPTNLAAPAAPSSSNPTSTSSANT

In the test the target is Drosophila WNK (HA-DWNK) (Drosophila) (UniProt M9PGC5). Nature of the test: co-IP; HA-DWNK and T7-Fray transiently co-expressed in HEK293T cells; cell extracts immunoprecipitated with HA antibody, then immunoblotting. In general terms: In western blotting, separated proteins are transferred to a membrane and probed.

These are yes or no findings as the source states them, for the method shown. Binding seen in cells or lysates may run through a third protein. A result given as binding can be weak or reduced; the word gives no strength.

B1: Drosophila Fray (T7-Fray) (enzyme, UniProt Q9VE62 1-552)
chain: MTSIPANLSSNNVAGAATLPGAAAPPEKYTWPNSKDDYELRDVIGVGATAVVHGAYCIPRNEKCAIKRINLEKWNTSMDELLKEIQAMSSCFHENVVTYHTSFVVREELWLVLRLLEGGSLLDIIKHKMRTSNCKQGVFDEATIATVLKEVLKGLEYFHSNGQIHRDIKAGNILIGDDGTIQIADFGVSAWLATGRDLSRQKVRHTFVGTPCWMAPEVMEQDHGYDFKADIWSFGITAIEMATGTAPYHKYPPMKVLMLTLQNDPPTLDTGADDKDQYKAYGKTFRKMIVECLQKEPSKRPTASELLKHAFFKKAKDRKYLTQTLLQSGPSMETRVHKAAKRQPGASGRLHRTVTGEWVWSSEEEDNGGSATGSGTGDRKHPSSDSDSEDRPMNRLERADSSDSDREEPSPEITHSVSSATVTSGAPAAAGAGAAQELTAGIAQLPLPSEAAGEAPPVNLVLRMRNLRRELHDIRFEFVVGKDTAEGIATELVDAGLVDALDTQPMATHLDQLIAASATMKTITFQLSSGVQPGEVPDERSLVGYAQISITD
As for B1, the binding entry is listed as “binds”.
